Record: PubChem BioAssay AID1259279 (Sanger Institute, 2017)
The deposit covers 794 reagents; shown is a part drawn at random. In the full data, 11 (1.4%) are marked active. 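Calls reflect knock-down alone in the vehicle arm, not drug synergy.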 Further read-outs or replicates are left out here. Not stated in the record: the amount of reagent, the time to read-out.

- Test: 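Kinase-wide knock-down seeking synergy with BYL719, cetuximab or trametinib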 (primary screen)
- Cells: LS180 human colorectal cancer cells
- Reagents: siRNA pool against human genes
- Treatment: anchor drug BYL719 at 1 µM, cetuximab at 5 µg/ml or trametinib at 10 nM, or DMSO vehicle only
- Detection: 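Cell viability versus a non-targeting pool, as a fraction and as a robust z-score from replicate means, plus a synergy score for each of three drugs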
- Reading the numbers: viability z-score, no drug: higher = more viable cells after knock-down
- Hit rule: 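Essential (active) calls need a no-drug viability z-score lower than -3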
- Calls: active = essential (knock-down alone cuts viability); inactive = no change without drug

| gene | viability z-score, no drug | call |
| --- | --- | --- |
| PHKG2 | 0.86 | inactive |
| DCK | -0.853 | inactive |
| ROS1 | 0.53 | inactive |
| STK33 | 0.86 | inactive |
| SIK3 | 0.86 | inactive |
| AKT1 | 0.86 | inactive |
| HIPK3 | 0.86 | inactive |
| MYLK2 | -1.22 | inactive |
| GSK3B | 0.86 | inactive |
| CEP290 | 0.86 | inactive |
| RAD21 | -1.94 | inactive |
| VRK3 | 0.86 | inactive |
| DGUOK | -0.416 | inactive |
| MKNK2 | -0.705 | inactive |
| PTPN11 | 0.518 | inactive |
| MAST2 | 0.341 | inactive |
| PRPS2 | 0.86 | inactive |
| MAPKAPK5 | -1.69 | inactive |
| AK7 | 0.813 | inactive |
| ITSN1 | -0.908 | inactive |
| PIK3R2 | 0.86 | inactive |

Individual results from above.
For “viability z-score, no drug”, AKT1 has 0.86
HIPK3, viability z-score, no drug: 0.86

Continued.
| gene | viability z-score, no drug | call |
| --- | --- | --- |
| UCK2 | 0.43 | inactive |
| DDR1 | 0.86 | inactive |
| CDK15 | 0.86 | inactive |
| PIK3CA | 0.791 | inactive |
| EPHA5 | 0.81 | inactive |
| MAP3K9 | -1.55 | inactive |
| STK17A | -1.11 | inactive |
| SGK1 | 0.139 | inactive |
| RET | 0.452 | inactive |
| CLK2 | 0.457 | inactive |
| CASK | -0.854 | inactive |
| HIPK2 | 0.000392 | inactive |
| ATRX | 0.0659 | inactive |
